Experimental data: paper doi:10.1101/2020.06.04.133611 (bioRxiv, 2020)
Results are given in words; binding and its absence hold for the method and conditions named. Binding calls can cover weak binding; strength is not graded here. For some assays here: In cells and extracts the contact can be indirect. Each block holds one molecule with its values, some of them ahead of it.

Chains of the proteins cited; added tags and fusions are not shown. Lines headed by an entry give the natural chain unless they say otherwise; changes in a name come on top.
UniProt P64606: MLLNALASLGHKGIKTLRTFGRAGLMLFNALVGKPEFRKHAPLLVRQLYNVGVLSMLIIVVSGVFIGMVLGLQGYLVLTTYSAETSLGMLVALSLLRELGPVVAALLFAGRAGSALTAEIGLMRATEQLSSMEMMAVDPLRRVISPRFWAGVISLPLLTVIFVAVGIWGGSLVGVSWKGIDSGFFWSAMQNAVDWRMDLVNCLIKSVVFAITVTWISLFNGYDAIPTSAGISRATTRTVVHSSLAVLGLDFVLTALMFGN

What was measured:
[1] = molecular target: T1, MlaB Thr52Ala (E. coli K-12) (UniProt P64602); assay: pull-down
T1 sequence: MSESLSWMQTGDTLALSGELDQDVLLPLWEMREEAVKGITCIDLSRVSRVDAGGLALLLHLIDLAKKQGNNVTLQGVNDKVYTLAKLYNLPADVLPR

MlaE (E. coli K-12) = MlaE (E. coli K-12) (UniProt P64606); assay: cryo-EM structure

binding [1]: binds
Molecule: MlaE (from UniProt P64606)

binding (MlaE (E. coli K-12)): binds
B1: MlaF (natural protein)
chain: MEQSVANLVDMRDVSFTRGNRCIFDNISLTVPRGKITAIMGPSGIGKTTLLRLIGGQIAPDHGEILFDGENIPAMSRSRLYTVRKRMSMLFQSGALFTDMNVFDNVAYPLREHTQLPAPLLHSTVMMKLEAVGLRGAAKLMPSELSGGMARRAALARAIALEPDLIMFDEPFVGQDPITMGVLVKLISELNSALGVTCVVVSHDVPEVLSIADHAWILADKKIVAHGSAQALQANPDPRVRQFLDGIADGPVPFRYPAGDYHADLLPGS
